The source of these data is PMC7819943, “Rice protein-binding microarrays: a tool to detect cis-acting elements near promoter regions in rice”.

This is one part of the list.

This experiment addresses T1, OsSMF1 (Oryza sativa, UniProt Q6ZLB0 1-436).
T1 sequence: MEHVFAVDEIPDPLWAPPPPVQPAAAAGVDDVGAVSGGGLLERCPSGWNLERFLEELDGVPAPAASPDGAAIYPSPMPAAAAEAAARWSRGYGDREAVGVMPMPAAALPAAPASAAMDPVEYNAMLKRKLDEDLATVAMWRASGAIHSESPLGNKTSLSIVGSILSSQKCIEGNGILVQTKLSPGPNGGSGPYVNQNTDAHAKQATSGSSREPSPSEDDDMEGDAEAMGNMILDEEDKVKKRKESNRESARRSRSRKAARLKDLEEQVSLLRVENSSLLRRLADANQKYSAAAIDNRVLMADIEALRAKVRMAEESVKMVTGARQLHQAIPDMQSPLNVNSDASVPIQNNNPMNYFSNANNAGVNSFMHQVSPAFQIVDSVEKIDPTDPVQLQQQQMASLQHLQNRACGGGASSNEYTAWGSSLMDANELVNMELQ
In words: protein-binding microarray (RPBM); PBS, 2% BSA, 51.3 ng/ul salmon testes DNA, 50 uM zinc acetate, 200 nM TF, 25 C, 1 h; high values mean tight binding. As to conditions: protein: recombinant; tags: N-terminal polyhistidine and DsRed monomer fusion (pET32a); chain copies: 2; label: CyDye5-dUTP incorporated in the synthesized complementary strand; 3' TTTTT single-stranded linker to array surface; dsDNA, one strand shown. In short, it runs like this:
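A custom Agilent array was converted to double-stranded form by primer extension with Cy5-dUTP and blocked with 2% BSA. Protein at 200 nM in PBS with 2% BSA, salmon testes DNA and 50 µM zinc acetate was applied for 1 h at 25 °C, followed by washing. The proteins were polyhistidine–DsRed N-terminal fusions of transcription factors, expressed in E. coli BL21-CodonPlus and Ni–NTA-purified. The binding signal is per-feature fluorescence intensity (arbitrary units) from an Axon 4000B scanner.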
In the case of “CATGCTAAGTAACAAGGTGTGTATCAGTTATTACTCAGCGCGGAGTCACCTAGTGCAG”, the binding signal was 3530 fluorescence intensity (a.u.).

With “TAATTGCTACGTCAGCACCACGTGGGATGAAGACCTAGTCCGGAGTCACCTAGTGCAG”, the binding signal was 33500 fluorescence intensity (a.u.). On to “GAGTAGTACAGATTGCTCAGACGGGTCGTCTCACCACCATCGGAGTCACCTAGTGCAG”, for which the binding signal is 4240 fluorescence intensity (a.u.).

For the sequence “CAAATCTCTAGCTTCCCCAATGACTAATGGAACTCATACACGGAGTCACCTAGTGCAG”, the binding signal was 3290 fluorescence intensity (a.u.). In the case of “ACTCTAATTTCCTAACGTTTCTTGACGTAGCCATAAGGTTCGGAGTCACCTAGTGCAG”, the binding signal is 4270 fluorescence intensity (a.u.). In the case of “ATCACATCAAAACTTTTCTACACATATAAACTTCTAACTTCGGAGTCACCTAGTGCAG”, the binding signal was 27400 fluorescence intensity (a.u.). To “AACTGAAAGATCATTGTACACACCAGCATTACCTGTAAACCGGAGTCACCTAGTGCAG” belongs 4240 fluorescence intensity (a.u.); to “ACGGTGGTGGGTGGGCCACCATATGGATTGGTGGAGGACGCGGAGTCACCTAGTGCAG”, 3310 fluorescence intensity (a.u.); to “CACACTGATACGCAACGCACGTAGCTACTGTACTGTAGGACGGAGTCACCTAGTGCAG”, 3290 fluorescence intensity (a.u.). The value for “TAATCATACGCTAATGGCTCACATCGTTTTGCATATCTTTCGGAGTCACCTAGTGCAG” was 3300 fluorescence intensity (a.u.); that for “TTCTCTTGCTCCCTAACCCAGCAACCAAACAAAGCGGATTCGGAGTCACCTAGTGCAG” was 3230 fluorescence intensity (a.u.); that for “ACCCATAGATGAATATCCATTTATCTTTCCCTTTTCGTACCGGAGTCACCTAGTGCAG” was 3140 fluorescence intensity (a.u.).

Turning to “TTTGGGTAGATGAAACATATCATAGCTTGTTCAGTACTATCGGAGTCACCTAGTGCAG”, the binding signal was 3270 fluorescence intensity (a.u.). As to “ATTTTAATAATCCGCTTGCATCATTGCCTAGTTGCCTCTTCGGAGTCACCTAGTGCAG”, the binding signal is 22700 fluorescence intensity (a.u.). To “CTTCTCCCTCACCATCACCAACAAGAGAGAGGAGGAGTGGCGGAGTCACCTAGTGCAG” belongs 3590 fluorescence intensity (a.u.).

On to “TGCCTGGGAAGGCGGAGGAAAACGTGGGTCCGAAGGTGGGCGGAGTCACCTAGTGCAG”, for which the binding signal is 24300 fluorescence intensity (a.u.).

Consider “AGCTGCTTTCTGCGCTAATGACGGTGCGGGGCAGCGGCCGCGGAGTCACCTAGTGCAG”, for which the binding signal is 6020 fluorescence intensity (a.u.).

Take “ATGTGGTTGTTCCATTTAGGATGGGGACGTGGCATCCTGTCGGAGTCACCTAGTGCAG”: the binding signal is 15000 fluorescence intensity (a.u.). The value for “GCCCGCCACGTCTCTAAGTCGCTAGTACGCGCGAATTAGCCGGAGTCACCTAGTGCAG” was 4350 fluorescence intensity (a.u.).

Turning to “CTGTCGCTTTTCTAGTGACGTGTGGCCCATACTTATTGGGCGGAGTCACCTAGTGCAG”, the binding signal is 5870 fluorescence intensity (a.u.). To “GTTTCTAAATTTTGTTGCAACTTCCTTTCCAGGGTATCTGCGGAGTCACCTAGTGCAG” belongs 3180 fluorescence intensity (a.u.); to “CTCGGCATGGCCCACAACTCCCGGAATCCGCCTCACGTGGCGGAGTCACCTAGTGCAG”, 3420 fluorescence intensity (a.u.); to “GCAATGAGCTATATGCTGTACTGCCAGGGATGCTATGGTACGGAGTCACCTAGTGCAG”, 5450 fluorescence intensity (a.u.). On to “CTATATATATGTGATCCCTAGACTCCAGCTGTACTGCTGTCGGAGTCACCTAGTGCAG”, for which the binding signal was 4800 fluorescence intensity (a.u.). To “ACGTACCTTGTATTTATCATCTGATCTGCGAATTGAGGCCCGGAGTCACCTAGTGCAG” belongs 33300 fluorescence intensity (a.u.). The value for “TCCAAGTCTAGGGTTTCATCCTCCTCCTCCTCCTCCGCCGCGGAGTCACCTAGTGCAG” was 20400 fluorescence intensity (a.u.); that for “GTGACTACGGTAAGAAAATATCGAGTCAGCAAGAAAGCTACGGAGTCACCTAGTGCAG” was 5650 fluorescence intensity (a.u.). Consider “TGCCTACATATAATATGTCAGACACGTACCTCACAAACCACGGAGTCACCTAGTGCAG”, for which the binding signal is 4420 fluorescence intensity (a.u.). To “TCCAACTCAGTAATTTATTTGAGTATTACATGATATCATTCGGAGTCACCTAGTGCAG” belongs 3160 fluorescence intensity (a.u.); to “AATATTTACATTACTAAATTAGTTTTATTAAATTAATAATCGGAGTCACCTAGTGCAG”, 19800 fluorescence intensity (a.u.); to “ACCTTATTTGCATTGATTTTAGGAGTTAAGGGACGCGTCACGGAGTCACCTAGTGCAG”, 5920 fluorescence intensity (a.u.). As to “GCTTAACTGCTAGTACTACTAACACCTCACCTACCTCCCTCGGAGTCACCTAGTGCAG”, the binding signal was 3200 fluorescence intensity (a.u.). To “TGATGGCGGCTTTAGGTGACATGCAGCATTAAGTGGCATGCGGAGTCACCTAGTGCAG” belongs 4460 fluorescence intensity (a.u.); to “TGAGCCTCCGCCGCCCACCGCCGCCTCGCGGGATTGTTCGCGGAGTCACCTAGTGCAG”, 25300 fluorescence intensity (a.u.). The value for “TCACTTACTTGGCTACGAGTTCTTGCCATGTACACTCCATCGGAGTCACCTAGTGCAG” was 3200 fluorescence intensity (a.u.); that for “GTGGTGGTGTGTGCTCCTCGTGGCTCGCCGGATCACGTGGCGGAGTCACCTAGTGCAG” was 5050 fluorescence intensity (a.u.); that for “CGTATATATAAGCTAGCTGCTCGTTCTTGTTGGCTCCTTCCGGAGTCACCTAGTGCAG” was 3140 fluorescence intensity (a.u.). To “TGTGGATGTACATCATCAACTAATTAAACAATCTCTCTTGCGGAGTCACCTAGTGCAG” belongs 3530 fluorescence intensity (a.u.); to “CAAACAGCGACCCCGAACTCCCCAACTACCAAACCAAACTCGGAGTCACCTAGTGCAG”, 3400 fluorescence intensity (a.u.). With “CGGCAGCCACCTCCCCACTCCATCCTCTCGTCCCCTTTTACGGAGTCACCTAGTGCAG”, the binding signal is 3870 fluorescence intensity (a.u.). The value for “ACGAATGCTACGTACAGTCAACTTAATATTTCTTCGCCATCGGAGTCACCTAGTGCAG” was 4240 fluorescence intensity (a.u.); that for “TCTGTTCTCCATGCTGCGCAGTACCCTGAGTTGCGTCTAACGGAGTCACCTAGTGCAG” was 3380 fluorescence intensity (a.u.).
